Where a chain is given by its changes, count along the chain named. These are yes or no findings as the source states them, for the method shown. Some entries that bind do so weakly or less than the wild type.
B1: AHF16309 전장 항체 (full length antibody, IgG4) (antibody, V domains shown)
VH: EVQLVQSGSELKKPGASVKVSCKASGYTFTSYWMHWMRQAPGQGLEWIGVIDPNDSYTSYNQGFTGRFVLSVDTSVSTAYLQISSLKAEDTAVYYCARGGKRMMDYWGQGTTVTVSS
VL: DVVMTQSPLSLPVTLGQPASISCRSSQSLVHSNGNTYLNWFQQRPGQSPRLLIYKVSNRFPGVPDRFSGSGSGTDFTLKISRVEAEDVGVYYCSQSTHVPFTFGGGTKLEIKR
B2: AHF16310 전장 항체 (full length antibody, IgG4) (antibody, V domains shown)
VH: B1 VH
VL: B1 VL with N39H, P61T
B3: AHF16312 전장 항체 (full length antibody, IgG4) (antibody, V domains shown)
VH: B1 VH with M103I
VL: B1 VL with P61T

Protein sequences, listed by entry. Tags and fused reporters are not part of them. Residues count along the entry.
UniProt Q08722, residues 19-139: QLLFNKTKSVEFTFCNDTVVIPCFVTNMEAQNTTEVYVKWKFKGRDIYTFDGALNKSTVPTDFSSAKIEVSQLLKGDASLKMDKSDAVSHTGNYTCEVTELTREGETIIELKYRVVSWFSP

Target: 인간 CD47 단백질 (Human CD47, SPR analyte) (human) (UniProt Q08722)
Experiment: SPR, Biacore 8K

binding, binds:
B1
B2
B3
